From PubChem BioAssay AID1794844 (National Center for Advancing Translational Sciences (NCATS), 2023)
The whole screen tested about 2,800 compounds, of which fewer than 10 were called active. Inconclusive results (about 7%) are left out. Calls come from the whole dose curve; as a rule, active = well fitted inhibition curve with a large enough effect; inconclusive = small, poorly fitted or top-dose-only effect; inactive = no such curve, though single readings can be large or run the other way. Some of the results follow.

Sequences of proteins named here, by UniProt entry; tags and fusion partners are left off. A change or cut given only in a name is not applied to a line headed by its entry.
UniProt C7C422: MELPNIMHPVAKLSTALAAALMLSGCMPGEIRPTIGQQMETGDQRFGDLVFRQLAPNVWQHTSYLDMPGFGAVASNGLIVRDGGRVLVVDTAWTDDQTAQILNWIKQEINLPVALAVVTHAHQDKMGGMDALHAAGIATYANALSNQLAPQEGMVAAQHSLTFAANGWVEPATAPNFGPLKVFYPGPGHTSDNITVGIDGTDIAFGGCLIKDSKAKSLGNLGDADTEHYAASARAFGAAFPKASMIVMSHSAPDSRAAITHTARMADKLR

molecular target: Metallo-beta-lactamase type 2 (Klebsiella pneumoniae) (UniProt C7C422); test: qHTS to identify inhibitors of the New Delhi Metallo-beta-lactamase (NDM): Nitrocefin screen against the machine-based learning selections.; note: % of control where 0% means no effect; conditions: NDM-1 enzyme, nitrocefin hydrolysis, absorbance 485 nm; activity, negative = inhibition: at the top concentration
Outline: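 NDM-1 (2 nM final) in 50 mM HEPES pH 7.0, 1 uM Zn2SO4, 0.01% Tween20 was preincubated with compounds for >30 min. Nitrocefin (16.7 uM final) was read at 485 nm after 15 min, and meropenem (50 uM final) at 300 nm after 30 min.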

activity, negative = inhibition, inactive:
COc1cc(SC)ccc1C(=O)N[C@H]1CCN2C(=O)[C@@H](CC(C)C)NC(=O)[C@@H]2C1 2.74% [at 57.5 µM]
NC(=O)CN1CCC(C(=O)NCc2cc(-c3ccc(Cl)cc3)on2)CC1 -4.79%
Cc1ccsc1-c1[nH]nc2ncc(-c3cn[nH]c3)nc12 15.8% [at 76.7 µM]
COc1ccccc1-c1noc(CCC(=O)N2CCC(Cc3noc(C)n3)CC2)n1 -12%
COc1ccc(-c2cnc([C@@H]3COCCN3Cc3cn(C)c4ccccc34)[nH]2)cc1 -5.82% [at 57.5 µM]
Cc1ncnc(N2CCC(Oc3ccc4ccccc4c3)(C(=O)O)CC2)c1C 0%
O=C(c1ccccc1)N1CCC(NCCN2CCCCC2CO)CC1 (configuration not stated) -0.201%
C#CCN(C)CC[C@@H]1CC[C@H](O)[C@@H](C(=O)N(C)Cc2ccccc2)O1 -0.239% [at 57.5 µM]
CC(C)N1CCC(O)(c2csc(CN3CCN(C)CC3)n2)CC1 2.11% [at 57.5 µM]
Oc1ccccc1CN1CCNc2cnc(Oc3ccccc3)cc2C1 -3.99% [at 57.5 µM]
CCOc1ccccc1-n1c(Cc2ccc(O)cc2)n[nH]c1=O -4.89%
Cc1csc(NC(=O)c2nc(C(O)c3cccc(O)c3)oc2C)n1 (configuration not stated) -6.2% [at 57.5 µM]
Cn1c(CO[C@H]2CN(C(=O)c3cccnc3)C[C@H]2F)nc2ccccc21 0.8% [at 57.5 µM]
OC1CC([C@H](NC2CSCCSC2)c2ccc3c(c2)CCO3)C1 (some centres not stated) -2.88%
c1cncc(-c2ccnc(NCCCN3CCCc4ccccc43)n2)c1 0.235%
CS(=O)(=O)N1C[C@@H]2OCC(=O)N(Cc3cccnc3)[C@@H]2C1 -1.51% [at 57.5 µM]
COC(=O)[C@H]1CN(C(=O)c2cccnc2)CCN1C(=O)C1CCCCC1 2.03% [at 57.5 µM]
O=C(O)CCCC(=O)N1C[C@@H](C(=O)O)[C@H](c2ccc3c(c2)OCO3)C1 12.1%
COC(=O)CNC(=O)C1CCN(C(=O)C2CN(c3cccc(OC)c3)C(=O)N2)C1 (configuration not stated) 4.3%
O=C(CCc1c[nH]c2ccccc12)N1CCC(Oc2ncccc2C(=O)N2CCCCC2)C1 (configuration not stated) -6.03%
O=C(Nc1ccccc1)N[C@H]1[C@H](O)[C@@H](N2CCN(c3ccccc3)CC2)[C@@H]2OC[C@H]1O2 -7.52% [at 57.5 µM]
C#CCN(C)Cc1nc(C2(O)CCN(CC3CCCCC3)CC2)cs1 2.2% [at 57.5 µM]
CCN(CC)Cc1cnc2c(C(=O)Nc3ccc(OC)c(OC)c3)cnn2c1 -1.36%
CC1(C(=O)NCc2cccnc2)CCCc2cnc(NCc3ccccc3)nc21 (configuration not stated) -4.4% [at 57.5 µM]
Fc1ccccc1CNC1(Cc2cc(-c3ccccn3)on2)COC1 -0.401% [at 57.5 µM]
NC(=O)Cc1c[nH]c2ncc(-c3cccc(O)c3)cc12 3.42% [at 76.7 µM]
COc1ccc(CN2C(=O)[C@@H]3C[C@@H](CN3C3CCN(C)CC3)Oc3ccccc32)cc1 -0.134% [at 57.5 µM]
NC(=O)c1nc(CNC(=O)[C@H]2CCC[C@H](O)C2)no1 -12.8%
COc1ccccc1CNC[C@H]1O[C@@H]2C[C@@H](CC(=O)NCc3nccn3C)O[C@@H]2[C@@H]1O -4.2% [at 57.5 µM]
O=C1Nc2ccc(-c3ccc(Cl)cc3)cc2C(=O)N2CC[C@H](NC(=O)N3CCOCC3)[C@@H]12 5.75%
COCCCNC(=O)CCC[C@@H]1[C@H]2CCCN3CCC[C@@H](CN1C(=O)c1ccccc1)[C@@H]23 -3.2%
COc1ccc(OC)c(S(=O)(=O)N2CCCC(Cn3c(C)nc4cccnc43)C2)c1 (configuration not stated) 0.0221%
O=C(O)CCCC(=O)N1CCN2C(=O)c3cc(-c4ccco4)ccc3NC(=O)[C@@H]2C1 -1.67% [at 57.5 µM]
CCCC(C)N1CC2(CCN(C(=O)c3cnn4ccccc34)CC2)OC1=O (configuration not stated) 1.21%
O=C(NCCc1noc(C(F)(F)F)n1)[C@H]1CCC[C@H](O)C1 -0.36%
CCCn1ccc2sc(C)c(C(=O)NCc3cc(F)ccc3F)c2c1=O 3.42%
Cc1ccc(S(=O)(=O)Cc2noc([C@@H]3C[C@@H](O)CN3C(C)C)n2)cc1 6.26% [at 57.5 µM]
CC(c1ccc(-c2ccc(N(C)C)nn2)cc1)N(C)C (configuration not stated) 1.2%
OCc1cccc(-c2cc3c(cn2)CN(Cc2ccccc2)CCN3)c1 -4.5% [at 57.5 µM]
CC1(C(=O)NCCOc2ccccc2)CCCc2cnc(Nc3cccnc3)nc21 (configuration not stated) -0.598% [at 57.5 µM]
O=C1CCCCC(CNC(=O)c2ccccc2)N1 (configuration not stated) -0.956%
CN(C)CC(NC1CCC2(CCNCC2)CC1)c1ccccc1 (configuration not stated) 1.73%
COCC(=O)N[C@@H]1CCC[C@@H](C(=O)NCc2cc(F)cc(F)c2)CC(=O)N(C)C1 393% [at 57.5 µM]
COc1ccc(CN2CCNc3cnc(Nc4ccccc4)cc3C2)cc1O 2.38% [at 57.5 µM]
O=C(Nc1ccccc1CCc1ccccn1)C1CCN(c2cnn(Cc3ccccc3)c(=O)c2)C1 (configuration not stated) 0.595%
NS(=O)(=O)c1ccc(C(=O)N[C@H](c2cccs2)C2CC(O)C2)cc1 (some centres not stated) 0.424%
COc1ccc(-c2cc(N3CCCN(C(=O)c4ccc(C)s4)CC3)n[nH]2)cc1 3.9%

For convenience, twelve of the compounds above:
activity, negative = inhibition, inactive:
NC(=O)Cc1c[nH]c2ncc(-c3cccc(O)c3)cc12 3.42% [at 76.7 µM]
COc1ccc(CN2C(=O)[C@@H]3C[C@@H](CN3C3CCN(C)CC3)Oc3ccccc32)cc1 -0.134% [at 57.5 µM]
NC(=O)c1nc(CNC(=O)[C@H]2CCC[C@H](O)C2)no1 -12.8%
COc1ccccc1CNC[C@H]1O[C@@H]2C[C@@H](CC(=O)NCc3nccn3C)O[C@@H]2[C@@H]1O -4.2% [at 57.5 µM]
O=C1Nc2ccc(-c3ccc(Cl)cc3)cc2C(=O)N2CC[C@H](NC(=O)N3CCOCC3)[C@@H]12 5.75%
COCCCNC(=O)CCC[C@@H]1[C@H]2CCCN3CCC[C@@H](CN1C(=O)c1ccccc1)[C@@H]23 -3.2%
COc1ccc(OC)c(S(=O)(=O)N2CCCC(Cn3c(C)nc4cccnc43)C2)c1 (configuration not stated) 0.0221%
O=C(O)CCCC(=O)N1CCN2C(=O)c3cc(-c4ccco4)ccc3NC(=O)[C@@H]2C1 -1.67% [at 57.5 µM]
CCCC(C)N1CC2(CCN(C(=O)c3cnn4ccccc34)CC2)OC1=O (configuration not stated) 1.21%
O=C(NCCc1noc(C(F)(F)F)n1)[C@H]1CCC[C@H](O)C1 -0.36%
CCCn1ccc2sc(C)c(C(=O)NCc3cc(F)ccc3F)c2c1=O 3.42%
Cc1ccc(S(=O)(=O)Cc2noc([C@@H]3C[C@@H](O)CN3C(C)C)n2)cc1 6.26% [at 57.5 µM]
